Assay results taken from article PMC10897158.
Results are given in words; binding and its absence hold for the method and conditions named. Binding seen in cells or lysates may run through a third protein. For some assays here: Binding can be weak; no strength is given. For some assays here: Tags and fused reporters may be left off the sequences shown.

Amino acid sequences for entries named in this document (tags omitted). A change or cut given only in a name is not applied to a line headed by its entry.
UniProt P70217: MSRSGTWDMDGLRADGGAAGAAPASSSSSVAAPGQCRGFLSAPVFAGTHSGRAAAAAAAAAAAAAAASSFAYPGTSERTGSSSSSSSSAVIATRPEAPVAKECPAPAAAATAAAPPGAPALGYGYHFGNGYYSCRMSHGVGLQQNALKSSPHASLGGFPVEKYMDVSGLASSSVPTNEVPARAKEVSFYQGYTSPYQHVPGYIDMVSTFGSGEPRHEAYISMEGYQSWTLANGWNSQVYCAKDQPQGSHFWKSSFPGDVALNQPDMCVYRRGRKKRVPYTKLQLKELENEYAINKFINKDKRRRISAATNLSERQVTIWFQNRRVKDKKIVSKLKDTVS
UniProt Q99453: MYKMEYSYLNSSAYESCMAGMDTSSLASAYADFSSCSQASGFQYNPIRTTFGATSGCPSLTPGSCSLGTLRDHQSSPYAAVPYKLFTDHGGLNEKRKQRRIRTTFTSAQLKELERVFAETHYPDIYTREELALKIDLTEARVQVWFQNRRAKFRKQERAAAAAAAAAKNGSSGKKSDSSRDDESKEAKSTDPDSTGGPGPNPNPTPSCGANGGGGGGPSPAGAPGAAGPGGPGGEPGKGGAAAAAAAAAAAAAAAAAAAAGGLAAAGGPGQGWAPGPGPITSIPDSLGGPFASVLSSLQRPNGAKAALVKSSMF
UniProt Q13950: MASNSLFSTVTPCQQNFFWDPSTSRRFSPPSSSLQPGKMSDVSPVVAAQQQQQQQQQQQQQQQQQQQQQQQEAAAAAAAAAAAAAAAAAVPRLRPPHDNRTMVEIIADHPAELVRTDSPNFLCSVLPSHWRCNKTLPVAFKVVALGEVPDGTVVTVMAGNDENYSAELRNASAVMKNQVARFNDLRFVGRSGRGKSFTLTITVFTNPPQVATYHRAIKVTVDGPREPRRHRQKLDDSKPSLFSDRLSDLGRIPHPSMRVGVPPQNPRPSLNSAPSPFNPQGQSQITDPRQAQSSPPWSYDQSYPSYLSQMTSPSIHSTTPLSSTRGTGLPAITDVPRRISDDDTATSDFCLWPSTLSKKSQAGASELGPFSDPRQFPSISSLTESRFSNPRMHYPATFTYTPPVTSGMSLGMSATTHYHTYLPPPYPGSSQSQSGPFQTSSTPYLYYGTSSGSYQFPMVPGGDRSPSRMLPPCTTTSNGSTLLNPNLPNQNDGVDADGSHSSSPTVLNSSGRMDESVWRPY

How the values were obtained:
[1] = target: T1, E1 ubiquitin-activating enzyme UBA6 (endogenous) (human (endogenous in HEK293T, human fibroblasts and iPSC-derived neurons)) (UniProt A0AVT1); assay: co-IP; nuclear fraction (LaminB1 enriched) of transfected HEK293T cells; immunoprecipitation of endogenous UBA6, unrelated IgG as control; blot with anti-HA
T1 sequence: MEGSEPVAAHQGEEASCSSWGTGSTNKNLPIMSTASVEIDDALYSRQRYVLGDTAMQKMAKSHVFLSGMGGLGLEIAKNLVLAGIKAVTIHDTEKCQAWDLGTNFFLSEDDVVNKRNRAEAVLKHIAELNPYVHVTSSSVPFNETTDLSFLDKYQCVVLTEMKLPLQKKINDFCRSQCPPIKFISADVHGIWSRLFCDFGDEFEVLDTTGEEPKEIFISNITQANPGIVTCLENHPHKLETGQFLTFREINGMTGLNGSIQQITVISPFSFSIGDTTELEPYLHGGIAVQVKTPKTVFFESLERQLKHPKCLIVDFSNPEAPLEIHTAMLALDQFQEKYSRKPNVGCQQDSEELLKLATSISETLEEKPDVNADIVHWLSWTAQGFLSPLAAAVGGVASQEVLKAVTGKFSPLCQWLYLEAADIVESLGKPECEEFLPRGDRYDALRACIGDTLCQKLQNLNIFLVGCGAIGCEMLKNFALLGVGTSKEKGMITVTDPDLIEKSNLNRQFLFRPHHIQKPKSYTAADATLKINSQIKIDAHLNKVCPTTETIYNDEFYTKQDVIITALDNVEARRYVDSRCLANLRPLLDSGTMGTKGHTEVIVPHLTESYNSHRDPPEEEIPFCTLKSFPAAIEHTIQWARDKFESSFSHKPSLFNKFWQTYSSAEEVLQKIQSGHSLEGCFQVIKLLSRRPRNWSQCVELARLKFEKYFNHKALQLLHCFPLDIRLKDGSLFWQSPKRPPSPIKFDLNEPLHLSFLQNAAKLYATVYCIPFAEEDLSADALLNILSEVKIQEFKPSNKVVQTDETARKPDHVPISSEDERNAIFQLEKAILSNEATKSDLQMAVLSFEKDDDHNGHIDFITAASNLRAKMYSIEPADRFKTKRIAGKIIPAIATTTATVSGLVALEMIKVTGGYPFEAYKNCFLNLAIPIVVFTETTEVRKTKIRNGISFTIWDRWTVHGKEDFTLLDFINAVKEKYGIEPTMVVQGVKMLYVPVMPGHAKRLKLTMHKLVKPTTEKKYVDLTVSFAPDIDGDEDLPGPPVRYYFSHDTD

[2] = target: T1, E1 ubiquitin-activating enzyme UBA6 (endogenous) (human (endogenous in HEK293T, human fibroblasts and iPSC-derived neurons)); assay: co-IP; whole-cell lysates of transfected HEK293T cells; immunoprecipitation of endogenous UBA6 with anti-UBA6; IP buffer 20 mM Tris-HCl pH 7.2, 150 mM NaCl, 2 mM MgCl2, 0.5% NP-40; pre-clearing with beads for isolated polyalanine stretches
[3] = target: T1, E1 ubiquitin-activating enzyme UBA6 (endogenous) (human (endogenous in HEK293T, human fibroblasts and iPSC-derived neurons)); assay: co-IP; cytoplasmic fraction (GAPDH enriched, IP buffer with 0.1% NP40) of transfected HEK293T cells; immunoprecipitation of endogenous UBA6, unrelated IgG as control; blot with anti-HA
[4] = target: T2, HA-tagged UBA6 wild type (pcDNA3.1-HA-UBA6) (UniProt A0AVT1); assay: pull-down; lysates of HEK293T cells expressing HA-UBA6 and FLAG-USE1 incubated with recombinant TIG-mutant PHOX2B; anti-HA beads pull down UBA6, beads only as control; only the binder purified
T2 sequence: T1 sequence

| Substance | binding [2] | binding [3] | binding [4] | binding [1] |
| --- | --- | --- | --- | --- |
| HA-mutant HOXD13 (+10Ala) (from UniProt P70217) | binds | binds | – | no binding (only in the nuclear fraction) |
| HA-mutant PHOX2B (+13Ala) (from UniProt Q99453) | binds | binds | – | no binding (only in the nuclear fraction) |
| recombinant TIG-mutant PHOX2B (+13 Ala) (from UniProt Q99453) | – | – | binds | – |

Further lines, with some results ahead:

| binding [2] | binding [3] | binding [4] | Substance | binding [1] |
| --- | --- | --- | --- | --- |
| binds | binds | – | HA-mutant PABPN1 (+7 Ala) (bovine (humanized)) | no binding (only in the nuclear fraction) |
| binds | binds | – | HA-mutant RUNX2 (+12Ala) (from UniProt Q13950) | no binding (only in the nuclear fraction) |
| binds | – | – | mutant RUNX2 (+6Ala), HA-tagged (from UniProt Q13950) | – |
